# Primary screen of a compound library

Source: ChEMBL document CHEMBL3988442, “University of Dundee, Small-Polar-MMV Screening Library” (2021).

Mtb cholesterol medium: 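Growth of Mycobacterium tuberculosis over 4 days (cholesterol / DPPC medium with tyloxapol); the read-out is not stated. Tested at 50 µM. Higher reads as more growth inhibition (inferred: compounds with an IC50 in retests scored well above the rest). Size under these conditions: about 69,000 compounds, about 370 of them at 50% or above in at least one test.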
Mtb glucose medium: 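Whole-cell growth test on Mycobacterium tuberculosis, read after 3 days in glucose-containing 7H9 medium; the read-out is not stated. Concentration: 50 µM. The record gives no direction; compounds that gave an IC50 in retests scored well above the rest, so higher reads as more growth inhibition. Of about 69,000 compounds tested this way, about 760 (1.1%) reached 50% or more in at least one test.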

Each number is a percent effect as filed.
The controls that fix the scale are not given in the record; negative values are as filed.
This is an unselected part of the compounds tested.
Two or more numbers in one place are separate tests of the same structure; such repeats can differ widely.

{"compound": "CCc1nnc2n1CCN(C(=O)c1ccc3[nH]cnc3c1)C2", "Mtb cholesterol medium": -20.99, "Mtb glucose medium": "-25.16 & -2.703"}
{"compound": "COCCN1CCC2(CCCN(C(=O)c3ccoc3C)C2)C1=O", "stereo": "stereo not shown", "Mtb cholesterol medium": -12.04, "Mtb glucose medium": "8.611 & 0.3209"}
{"compound": "CCc1cnc(NC(=O)NC2CCN(C)CC2)s1", "Mtb cholesterol medium": -9.811, "Mtb glucose medium": 0.3024}
{"compound": "CC(C)(C)n1ncc2c(=O)[nH]c(N3CCN(CC(F)F)CC3)nc21", "Mtb cholesterol medium": -8.183, "Mtb glucose medium": -5.427}
{"compound": "CC(=O)N1CCC2(CCN(C(=O)c3ccc(F)c(C(F)(F)F)c3)C2)C1", "stereo": "stereo not shown", "Mtb cholesterol medium": 2.489, "Mtb glucose medium": 15.68}
{"compound": "O=C(c1ccnn1COc1ccc(Cl)cc1)N1CCOCC1", "Mtb cholesterol medium": -5.488, "Mtb glucose medium": "2.363 & -4.88"}
{"compound": "CCn1nc(C)c2nnn(CC(=O)Nc3ccc(C)cc3)c(=O)c21", "Mtb cholesterol medium": 12.68, "Mtb glucose medium": 32.42}
{"compound": "NC(=O)Cn1cc(NC(=O)N2CCCCCC2)cn1", "Mtb cholesterol medium": 22.79, "Mtb glucose medium": 19.52}
{"compound": "Cc1n[nH]cc1CNC(C(=O)N1CCOCC1)c1ccccc1", "stereo": "stereo not shown", "Mtb cholesterol medium": -33.53, "Mtb glucose medium": "-7.769 & -52.03"}
{"compound": "CC(C)(C)c1ncc(C(=O)NCCSc2ccccn2)c(O)n1", "Mtb cholesterol medium": -17.4, "Mtb glucose medium": -5.44}
{"compound": "[H][C@@]12CCN(Cc3cnn(C)c3)C[C@@]1([H])O[C@H](c1nc(C3CC3)cs1)C2", "Mtb cholesterol medium": -9.617, "Mtb glucose medium": "-1.912 & 13.19"}
{"compound": "O=C(NC1CCCC1)c1n[nH]c2c1CNCC2", "Mtb cholesterol medium": 21.98, "Mtb glucose medium": -6.806}
{"compound": "COc1ccc2cc(C3CN(C(=O)C4CCOCC4)CCO3)ccc2c1", "stereo": "stereo not shown", "Mtb cholesterol medium": 14.94, "Mtb glucose medium": -15.39}
{"compound": "CCN1CCN(c2ccccc2NC(=O)N(C)C2CCSC2)CC1", "stereo": "stereo not shown", "Mtb cholesterol medium": 1.65, "Mtb glucose medium": -19.91}
{"compound": "Cc1cc(C(F)(F)F)c2c(=O)n(Cc3cc(C)on3)n(C)c2n1", "Mtb cholesterol medium": 14.43, "Mtb glucose medium": 1.261}
{"compound": "CN(c1ccc(C(=O)NCCCN2CCOCC2)c(Cl)c1)S(C)(=O)=O", "Mtb cholesterol medium": 6.825, "Mtb glucose medium": 18.07}
{"compound": "Cc1cc(C)n(CC2CCCCN2C(=O)c2ccc3c(c2)COC3)n1", "stereo": "stereo not shown", "Mtb cholesterol medium": 2.479, "Mtb glucose medium": 12.22}
{"compound": "NC(=O)CN1CC2(CCC1=O)CCN(Cc1ccc(Cl)c(F)c1)CC2", "Mtb cholesterol medium": "-3.592 & -23.5", "Mtb glucose medium": -31.9}
{"compound": "CN(CC(=O)Nc1nncs1)CC1CCCN1c1cccnn1", "stereo": "stereo not shown", "Mtb cholesterol medium": -15.63, "Mtb glucose medium": "-12.92 & -40.94"}
{"compound": "O=C(NCCn1ccnc1)c1cccc(F)c1", "Mtb cholesterol medium": -23.9, "Mtb glucose medium": -19.56}
{"compound": "CN1CCc2c(C#N)c(NCCc3ccccc3)n3cnnc3c2C1", "Mtb cholesterol medium": -0.6496, "Mtb glucose medium": 18.06}
{"compound": "COCCN(Cc1cnn(C)c1)CC1CCOC1", "stereo": "stereo not shown", "Mtb cholesterol medium": 2.002, "Mtb glucose medium": -6.468}
{"compound": "O=C1CCC(=O)N1c1nn(Cc2ccc(F)cc2)cc1Cl", "Mtb cholesterol medium": 35.99, "Mtb glucose medium": -19.25}
{"compound": "Cc1cc(-c2nn(C)c(Cl)c2CN2CCN(C)C(C(=O)O)C2)no1", "stereo": "stereo not shown", "Mtb cholesterol medium": -5.42, "Mtb glucose medium": 1.863}
{"compound": "Cc1ccc2c(n1)N(Cc1ccncc1)CCN(S(C)(=O)=O)C2.O=C(O)C(F)(F)F.O=C(O)C(F)(F)F", "Mtb cholesterol medium": 6.365, "Mtb glucose medium": 42.63}
{"compound": "COCC(=O)NC1CC2(CCN(CCO)CC2)c2ccccc21.O=C(O)C(F)(F)F", "stereo": "stereo not shown", "Mtb cholesterol medium": -10.58, "Mtb glucose medium": -21.81}
{"compound": "[H][C@]12CCN(Cc3cccc(C)c3)[C@@]1([H])C[C@H](C(=O)N1CCN(C)CC1)O2", "Mtb cholesterol medium": -2.014, "Mtb glucose medium": 8.517}
{"compound": "CC(C)c1ncc(CNC2(c3ccc(Cl)cc3)CC2)cn1", "Mtb cholesterol medium": -23.08, "Mtb glucose medium": -7.101}
{"compound": "Cc1noc(CNC(=O)NCCOc2ccc(Cl)cc2)n1", "Mtb cholesterol medium": 14.47, "Mtb glucose medium": 3.71}
{"compound": "CN(C)Cc1nn(C)c2c1CCN(C(=O)c1cnccn1)C2.O=C(O)C(F)(F)F", "Mtb cholesterol medium": -8.97, "Mtb glucose medium": "-30.36 & 1.778"}
{"compound": "Cc1cc(NC(=O)NCC(c2ccc(C)o2)N2CCOCC2)n(C)n1", "stereo": "stereo not shown", "Mtb cholesterol medium": 9.834, "Mtb glucose medium": "10.5 & 6.396"}
{"compound": "Cc1nc(CN2CCCC2c2noc(C3CC3)n2)nc2ccccc12", "stereo": "stereo not shown", "Mtb cholesterol medium": -16.94, "Mtb glucose medium": -59.96}
{"compound": "Cc1cc(C2CCCCN2C(=O)CN2CC3(CCNCC3)OC2=O)no1", "stereo": "stereo not shown", "Mtb cholesterol medium": -14.24, "Mtb glucose medium": "-11.62 & -0.5797"}
{"compound": "CNc1cc(C2CCCNC2)nc(C)n1.Cl.Cl", "stereo": "stereo not shown", "Mtb cholesterol medium": "-16.82 & 4.258", "Mtb glucose medium": -50.51}
{"compound": "Cc1ccc(C(=O)N2CCn3c(COCC4CC4)cnc3C2C)s1", "stereo": "stereo not shown", "Mtb cholesterol medium": -4.862, "Mtb glucose medium": 11.49}
{"compound": "O=C(O)C(F)(F)F.O=C(O)C(F)(F)F.O=C(O)C(F)(F)F.[H][C@@]12CN(Cc3nccs3)CCC[C@]1(C(=O)OCC)CN(CCN(C)C)C2", "Mtb cholesterol medium": -2.659, "Mtb glucose medium": 3.613}
{"compound": "Cc1cc(-c2nc(-c3ccccn3)nn2C2CCN(C)CC2)nc(C)n1", "Mtb cholesterol medium": -2.482, "Mtb glucose medium": -9.102}
{"compound": "O=c1[nH]c(C2CCOC2)nc2ccc(Br)cc12", "stereo": "stereo not shown", "Mtb cholesterol medium": -7.236, "Mtb glucose medium": "-5.952 & -2.95"}
{"compound": "[H][C@@]12CNC[C@]1([H])CN(C(=O)C1CCOCC1)C2", "Mtb cholesterol medium": -1.921, "Mtb glucose medium": 8.913}
{"compound": "N#CCCN(C(=O)CCc1cccnc1)c1ccc2c(c1)OCCO2", "Mtb cholesterol medium": -9.784, "Mtb glucose medium": 3.269}

Once more, the final 5:

O=C(O)C(F)(F)F.O=C(O)C(F)(F)F.O=C(O)C(F)(F)F.[H][C@@]12CN(Cc3nccs3)CCC[C@]1(C(=O)OCC)CN(CCN(C)C)C2 read Mtb cholesterol medium: -2.659%; Mtb glucose medium: 3.613%.
Cc1cc(-c2nc(-c3ccccn3)nn2C2CCN(C)CC2)nc(C)n1 read Mtb cholesterol medium: -2.482%; Mtb glucose medium: -9.102%.
O=c1[nH]c(C2CCOC2)nc2ccc(Br)cc12 (stereo not shown) read Mtb cholesterol medium: -7.236%; Mtb glucose medium: -5.952% & -2.95%.
[H][C@@]12CNC[C@]1([H])CN(C(=O)C1CCOCC1)C2 read Mtb cholesterol medium: -1.921%; Mtb glucose medium: 8.913%.
N#CCCN(C(=O)CCc1cccnc1)c1ccc2c(c1)OCCO2 read Mtb cholesterol medium: -9.784%; Mtb glucose medium: 3.269%.